Results deposited as PubChem BioAssay AID1259254 (NCATS, 2017).
Purpose: 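Genome-wide screen for genes that prevent DNA re-replication in cancer cells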 (primary screen). System: human HCT116 colorectal cancer cells. Knock-down reagent: single siRNA against human genes. Time to read-out: 3 days. Detection: 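Nuclei stained with Hoechst and imaged; cell-cycle phase assigned by DNA content; G2 share scaled per plate, non-targeting siRNA 0%, GMNN siRNA 100%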. Reading the numbers: G2 robust z-score and G2 cells, % of GMNN control: higher = more G2 cells, more excess DNA replication. Hit rule: 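An siRNA counts as active if its G2 robust z-score lies at least 5 MADs above the screen median; here such calls match roughly 38% of GMNN control or more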.
This is one part, drawn at random, of about 59,000 deposited reagents. Over the whole deposit, about 1,550 (2.6%) are marked active. 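G2 share is only a proxy for re-replication; each gene was hit by three separate siRNAs, and active genes were retested.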 Unmarked entries are inactive. Further read-outs or replicates are left out here. Not given: the amount of reagent.

GPRACR (GPR107 adjacent cis regulating lncRNA) [SID160767331] showed G2 robust z-score -0.868; G2 cells, % of GMNN control -3.14. Against GPRACR (GPR107 adjacent cis regulating lncRNA) [SID160767332], the values are G2 robust z-score -0.397; G2 cells, % of GMNN control 0.178. After knock-down of GPRACR (GPR107 adjacent cis regulating lncRNA) [SID160767333], the record shows G2 robust z-score 0.139; G2 cells, % of GMNN control 3.95. With knock-down of LOC652608 (60S ribosomal protein L6-like) [SID160726297] the results were G2 robust z-score 1.51; G2 cells, % of GMNN control 13.6. For LOC652608 (60S ribosomal protein L6-like) [SID160726298] the deposit lists G2 robust z-score 0.19; G2 cells, % of GMNN control 4.31. Depletion of LOC652608 (60S ribosomal protein L6-like) [SID160770786] resulted in: G2 robust z-score -0.732; G2 cells, % of GMNN control -2.18.

TEX12 (testis expressed 12) [SID160744905] gave G2 robust z-score -0.403; G2 cells, % of GMNN control 0.131. TEX12 (testis expressed 12) [SID160744906] scored G2 robust z-score -0.571; G2 cells, % of GMNN control -1.05. Depletion of TEX12 (testis expressed 12) [SID160744907] gave: G2 robust z-score 1.16; G2 cells, % of GMNN control 11.1. Silencing of SEMA4F (ssemaphorin 4F) [SID160728597] resulted in: G2 robust z-score 0.0851; G2 cells, % of GMNN control 3.57. Knock-down of SEMA4F (ssemaphorin 4F) [SID160728599] came out at: G2 robust z-score -1.57; G2 cells, % of GMNN control -8.11. After knock-down of SEMA4F (ssemaphorin 4F) [SID160728600], the record shows G2 robust z-score -0.494; G2 cells, % of GMNN control -0.506.
